Measured values reported in patent US6996429B2, “Apparatus and method for detecting flinch response to nociceptive agents” (Regents of the Univeristy of California, San Diego, priority 2001, dated 2006).

System: formalin induced flinching in the rat
Test: Effects of systemic and spinal drugs on formalin evoked flinching behavior (automated formalin test)
Type: in vivo
Conditions: from % MPE dose effect curves; for ED50 Phase II (Mean and 95% confidence intervals): Phase II (10–60 min); for ED50 Phase IIA (Mean and 95% confidence intervals): Phase IIA (10–40 min)

CN1CC[C@]23c4c5ccc(O)c4O[C@H]2[C@@H](O)C=C[C@H]3[C@H]1C5.O=S(=O)(O)O [Morphine, morphine sulfate]
ED50 Phase II (Mean and 95% confidence intervals) (IP (intraperitoneal)): 4.7 (7888-.003) mg
ED50 Phase IIA (Mean and 95% confidence intervals) (IP (intraperitoneal)): 1.8 (1.1–2.9) mg
ED50 Phase II (Mean and 95% confidence intervals) (IT (intrathecal)): 1.6 (0.6–4.7) μg
ED50 Phase IIA (Mean and 95% confidence intervals) (IT (intrathecal)): 1.5 (0.6–3.6) μg
